Paper PMC6425864

Tests used:
Assay in all cases: peptide or protein array; customized MARCoNI array; a concentration series of each NR box peptide immobilised, incubated with 3 nM GR LBD in the absence of ligand (vehicle DMSO); detected with ALEXA488-conjugated anti-GST antibody; both purified
[1] = biological target: T1, NRIP1_LxxLL936_924_946 (UniProt P48552)
T1 sequence (peptide): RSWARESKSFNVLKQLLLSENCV

[2] = biological target: T2, NRIP1_LxxLL819_805_831 (UniProt P48552)
T2 sequence (peptide): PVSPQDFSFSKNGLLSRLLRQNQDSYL

[3] = biological target: T3, ZNHI3_LxxLL101_89_111 (UniProt Q15649)
T3 sequence (peptide): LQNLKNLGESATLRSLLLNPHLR

[4] = biological target: T4, NRIP1_LxxLL185_173_195 (UniProt P48552)
T4 sequence (peptide): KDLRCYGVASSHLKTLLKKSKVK

[5] = biological target: T5, NRIP1_LxxLL713_700_722 (UniProt P48552)
T5 sequence (peptide): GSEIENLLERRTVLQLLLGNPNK

[6] = biological target: T6, PRGC1_LxxLL144_130_155 (UniProt Q9UBK2)
T6 sequence (peptide): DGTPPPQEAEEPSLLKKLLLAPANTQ

[7] = biological target: T7, NRIP1_LxxLL380_368_390 (UniProt P48552)
T7 sequence (peptide): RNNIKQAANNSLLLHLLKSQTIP

[8] = biological target: T8, NRIP1_LxxML1068_1055_1077 (UniProt P48552)
T8 sequence (peptide): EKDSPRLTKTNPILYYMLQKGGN

[9] = biological target: T9, PPRB_LxxLL645_632_655 (UniProt Q15648)
T9 sequence (peptide): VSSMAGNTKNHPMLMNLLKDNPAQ

[10] = biological target: T10, NRIP1_LxxLL21_8_30 (UniProt P48552)
T10 sequence (peptide): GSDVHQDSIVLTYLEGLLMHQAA

[11] = biological target: T11, NRIP1_LxxLL266_253_275_C263S (UniProt P48552)
T11 sequence (peptide): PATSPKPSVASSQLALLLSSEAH

[12] = biological target: T12, NRIP1_LxxLL500_488_510 (UniProt P48552)
T12 sequence (peptide): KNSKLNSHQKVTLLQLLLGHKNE

binding [1]: binds
binding [2]: binds
binding [3]: binds
binding [4]: binds
binding [5]: binds
binding [6]: binds
binding [7]: binds
binding [8]: binds
binding [9]: binds
binding [10]: binds
binding [11]: binds
binding [12]: binds
Substance: Purified Glucocorticoid Receptor Recombinant Human Protein, Ligand Binding Domain (domain or fragment)

These are yes or no findings as the source states them, for the method shown. Binding calls can cover weak binding; strength is not graded here.
